Molecules are shown by their SMILES. The structures given here were assigned with low confidence; some may be wrong.

Results on 1 molecule are retold here after patent US8546404B2, “Compounds that are ERK inhibitors” (Merck Sharp & Dohme, priority 2005, dated 2013).

A short description of the data set: Cassette Accelerating Rapid Rat Screen (CARRS), AUC during the first 6 hours. The data set is classed as in vivo, Male Sprague-Dawley rats. As to conditions: AUC during the first 6 hours (AUC6hr).

On to `C#CC1(C(=O)Nc2ccc3[nH]nc(-c4ccc(F)cc4)c3c2)CCN(CC(=O)N2CCN(c3ccc(-c4ncccn4)cn3)C[C@H]2C)C1` (stereo partly shown), for which the “Rat AUC PO” value worked out at 6.466 µM·h.
